Experimental data as given in article PMC3846833.
These are yes or no findings as the source states them, for the method shown. Binding seen in cells or lysates may run through a third protein. Binding can be weak; no strength is given.

Experiments:
[1] = target: complete ORF of sheep MSV (aa 1-321) with a C-terminal V5-tag (rMSV-V5) (sheep); assay: co-IP; as a3, with the muscle extract spiked with purified rMSV-V5; blot with anti-myostatin; only the target purified
[2] = target: myostatin splice variant (MSV), endogenous in sheep skeletal muscle (sheep (endogenous in semitendinosus muscle)); assay: co-IP; anti-MSV antibody beads in total protein extract of sheep semitendinosus muscle, 4°C, 18 h; 50 mM Tris-HCl pH 7.5, 100 mM NaCl, 0.1% Triton X-100; blot with anti-myostatin

binding [1]: binds | binding [2]: binds
B1: mature myostatin, endogenous in sheep skeletal muscle (ligand, UniProt O18830 267-375)
chain: DFGLDCDEHSTESRCCRYPLTVDFEAFGWDWIIAPKRYKANYCSGECEFLFLQKYPHTHLVHQANPKGSAGPCCTPTKMSPINMLYFNGKEQIIYGKIPGMVVDRCGCS
